Values from PubChem BioAssay AID1159584 (Peter MacCallum Cancer Centre, 2016).
Aim: 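Genes whose loss is lethal only together with E-cadherin loss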 (primary screen). Cells: human MCF10A breast epithelial cells, parental and CDH1-null. Knock-down reagent: siRNA against human genes. Measurement: 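ATP luminescence (CellTiter-Glo) viability per line relative to mean mock wells over all plates, and the ratio of CDH1-null to parental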. Reading the numbers: CDH1-null / parental viability ratio: higher = CDH1-null cells survive relatively better than parental; CDH1-null viability vs mock: higher = more viable CDH1-null cells; parental viability vs mock: higher = more viable parental cells.
This is an unselected part of about 18,000 deposited reagents. Not given: the amount of reagent, the time to read-out.

gene | PubChem SID | CDH1-null / parental viability ratio | CDH1-null viability vs mock (fraction of mock) | parental viability vs mock (fraction of mock)
COPB2 (coat protein complex I subunit beta 2) | SID152154210 | 1.11 | 0.2 | 0.18
DOLK (dolichol kinase) | SID134311728 | 1.32 | 1 | 0.76
ARSI (arylsulfatase family member I) | SID152153605 | 1.02 | 0.93 | 0.91
EDDM3A (epididymal protein 3A) | SID152152561 | 1.08 | 0.84 | 0.78
PRKRIP1 (PRKR interacting protein 1) | SID152153275 | 0.97 | 0.68 | 0.7
PDSS1 (decaprenyl diphosphate synthase subunit 1) | SID135621571 | 0.88 | 0.92 | 1.04
PIK3IP1 (phosphoinositide-3-kinase interacting protein 1) | SID152148593 | 1 | 0.72 | 0.72
ADAMTS5 (ADAM metallopeptidase with thrombospondin type 1 motif 5) | SID152148929 | 1.13 | 1.02 | 0.9
PKD2L2 | SID152147305 | 1.12 | 0.99 | 0.88
TTC3 (tetratricopeptide repeat domain 3) | SID134311889 | 0.98 | 0.89 | 0.91
OR5T2 (olfactory receptor family 5 subfamily T member 2) | SID152150845 | 1.18 | 0.87 | 0.74
FERRY3 (FERRY endosomal RAB5 effector complex subunit 3) | SID134320582 | 1.05 | 0.9 | 0.86
CYTIP (cytohesin 1 interacting protein) | SID134317639 | 1.05 | 1.23 | 1.17
ROCK1 (Rho associated coiled-coil containing protein kinase 1) | SID152156760 | 0.94 | 0.92 | 0.98
HABP2 (hyaluronan binding protein 2) | SID134311320 | 0.96 | 0.9 | 0.94
TMEM97 (transmembrane protein 97) | SID152152087 | 0.85 | 0.82 | 0.96
DYNC1LI2 (dynein cytoplasmic 1 light intermediate chain 2) | SID134323849 | 0.99 | 0.82 | 0.83
AFG3L2 (AFG3 like matrix AAA peptidase subunit 2) | SID134311209 | 1.31 | 0.72 | 0.55
NLK (nemo like kinase) | SID56478865 | 0.73 | 0.57 | 0.78
LIN54 (lin-54 DREAM MuvB core complex component) | SID134323124 | 0.93 | 0.82 | 0.88
MGRN1 (mahogunin ring finger 1) | SID134325456 | 1 | 0.96 | 0.96
SLURP1 (secreted LY6/PLAUR domain containing 1) | SID134317422 | 0.88 | 1.06 | 1.21
PNPO (pyridoxamine 5'-phosphate oxidase) | SID135621827 | 1.08 | 0.92 | 0.85
VNN2 (vanin 2) | SID135622443 | 1.11 | 0.92 | 0.83
RGS6 (regulator of G protein signaling 6) | SID152149749 | 0.92 | 0.74 | 0.8
TRMT10C (tRNA methyltransferase 10C, mitochondrial RNase P subunit) | SID152151260 | 0.93 | 0.94 | 1.01
PXK (PX domain containing serine/threonine kinase like) | SID152149443 | 0.95 | 0.72 | 0.76
ATG2B (autophagy related 2B) | SID135623214 | 1.31 | 1.05 | 0.8
ERCC1 (ERCC excision repair 1, endonuclease non-catalytic subunit) | SID134311724 | 1.07 | 0.75 | 0.7

A portion of the results above, for reference:
gene | PubChem SID | CDH1-null / parental viability ratio | CDH1-null viability vs mock (fraction of mock) | parental viability vs mock (fraction of mock)
EDDM3A (epididymal protein 3A) | SID152152561 | 1.08 | 0.84 | 0.78
PRKRIP1 (PRKR interacting protein 1) | SID152153275 | 0.97 | 0.68 | 0.7
PDSS1 (decaprenyl diphosphate synthase subunit 1) | SID135621571 | 0.88 | 0.92 | 1.04
PIK3IP1 (phosphoinositide-3-kinase interacting protein 1) | SID152148593 | 1 | 0.72 | 0.72
ADAMTS5 (ADAM metallopeptidase with thrombospondin type 1 motif 5) | SID152148929 | 1.13 | 1.02 | 0.9
PKD2L2 | SID152147305 | 1.12 | 0.99 | 0.88
TTC3 (tetratricopeptide repeat domain 3) | SID134311889 | 0.98 | 0.89 | 0.91
OR5T2 (olfactory receptor family 5 subfamily T member 2) | SID152150845 | 1.18 | 0.87 | 0.74

The listing continues.
gene | PubChem SID | CDH1-null / parental viability ratio | CDH1-null viability vs mock (fraction of mock) | parental viability vs mock (fraction of mock)
TANC1 | SID152148028 | 0.85 | 0.76 | 0.89
MGARP (mitochondria localized glutamic acid rich protein) | SID135621986 | 1 | 0.92 | 0.92
SLC14A1 | SID152150011 | 0.83 | 0.68 | 0.82
GAS2L3 (growth arrest specific 2 like 3) | SID134321828 | 0.83 | 0.96 | 1.15
OPN5 (opsin 5) | SID135624498 | 0.64 | 0.56 | 0.88
CERS1 (ceramide synthase 1) | SID135621910 | 1 | 0.58 | 0.58
GLRB (glycine receptor beta) | SID134311602 | 1.24 | 0.99 | 0.8
BORCS5 (BLOC-1 related complex subunit 5) | SID134322076 | 1.06 | 0.91 | 0.86
VN1R2 (vomeronasal 1 receptor 2) | SID152149913 | 0.79 | 0.92 | 1.17
NIPA2 (NIPA magnesium transporter 2) | SID152153686 | 0.85 | 0.73 | 0.86
TOMM7 (translocase of outer mitochondrial membrane 7) | SID134317971 | 1.08 | 0.26 | 0.24
OR8K5 (olfactory receptor family 8 subfamily K member 5) | SID152152650 | 0.61 | 0.43 | 0.71
GLDN (gliomedin) | SID152150502 | 0.87 | 0.7 | 0.8
SPG7 (SPG7 matrix AAA peptidase subunit, paraplegin) | SID134311461 | 0.99 | 0.74 | 0.75
CCDC148 (coiled-coil domain containing 148) | SID135623496 | 1.17 | 0.96 | 0.82
PRNP (prion protein (Kanno blood group)) | SID152154921 | 1.29 | 1.1 | 0.85
SLC19A2 | SID152149665 | 0.72 | 0.7 | 0.97
AGO1 (argonaute RISC component 1) | SID134310557 | 0.88 | 0.63 | 0.72
CHST3 (carbohydrate sulfotransferase 3) | SID152152499 | 1 | 0.51 | 0.51
TMEM267 (transmembrane protein 267) | SID152147576 | 1.06 | 0.86 | 0.81
TEX55 (testis expressed 55) | SID134319580 | 1.05 | 0.61 | 0.58
SRP72 (signal recognition particle 72) | SID135623816 | 0.97 | 0.62 | 0.64
PIGZ | SID134317200 | 0.91 | 0.64 | 0.7
ZNF169 (zinc finger protein 169) | SID152152965 | 1.25 | 1.25 | 1
SYT4 (synaptotagmin 4) | SID134318238 | 0.84 | 0.46 | 0.55
SLC6A19 | SID152152602 | 1.01 | 1.04 | 1.03
IL7R (interleukin 7 receptor) | SID134312930 | 0.9 | 1.01 | 1.12
NSMF | SID134320739 | 1.15 | 1.21 | 1.05
BNIP3L (BCL2 interacting protein 3 like) | SID134316132 | 0.82 | 0.64 | 0.78
GCA (grancalcin) | SID134316710 | 0.95 | 0.36 | 0.38
FHIP1B (FHF complex subunit HOOK interacting protein 1B) | SID152146859 | 0.66 | 0.39 | 0.59
RIOK3 (RIO kinase 3) | SID152150051 | 0.64 | 0.74 | 1.16
CT45A6 (cancer/testis antigen family 45 member A6) | SID135625391 | 0.59 | 0.46 | 0.78
SLC45A1 | SID152150672 | 0.91 | 0.5 | 0.55
DMXL2 (Dmx like 2) | SID152153809 | 0.95 | 0.86 | 0.91
MKNK1 (MAPK interacting serine/threonine kinase 1) | SID135620901 | 1.11 | 1.04 | 0.94
RBM39 (RNA binding motif protein 39) | SID134316274 | 0.68 | 0.41 | 0.6
CLINT1 (clathrin interactor 1) | SID134324991 | 1.42 | 0.37 | 0.26
SLCO4A1 | SID134312483 | 0.88 | 1 | 1.13
